Assay results published in paper PMC4808012.
Results are given in words; binding and its absence hold for the method and conditions named. Binding seen in cells or lysates may run through a third protein. Some binding calls cover weakened binding; strength is not graded here.

Sequences of proteins named here, by UniProt entry; tags and fusion partners are left off. Residues count along the entry.
UniProt P21860, residues 20-1342: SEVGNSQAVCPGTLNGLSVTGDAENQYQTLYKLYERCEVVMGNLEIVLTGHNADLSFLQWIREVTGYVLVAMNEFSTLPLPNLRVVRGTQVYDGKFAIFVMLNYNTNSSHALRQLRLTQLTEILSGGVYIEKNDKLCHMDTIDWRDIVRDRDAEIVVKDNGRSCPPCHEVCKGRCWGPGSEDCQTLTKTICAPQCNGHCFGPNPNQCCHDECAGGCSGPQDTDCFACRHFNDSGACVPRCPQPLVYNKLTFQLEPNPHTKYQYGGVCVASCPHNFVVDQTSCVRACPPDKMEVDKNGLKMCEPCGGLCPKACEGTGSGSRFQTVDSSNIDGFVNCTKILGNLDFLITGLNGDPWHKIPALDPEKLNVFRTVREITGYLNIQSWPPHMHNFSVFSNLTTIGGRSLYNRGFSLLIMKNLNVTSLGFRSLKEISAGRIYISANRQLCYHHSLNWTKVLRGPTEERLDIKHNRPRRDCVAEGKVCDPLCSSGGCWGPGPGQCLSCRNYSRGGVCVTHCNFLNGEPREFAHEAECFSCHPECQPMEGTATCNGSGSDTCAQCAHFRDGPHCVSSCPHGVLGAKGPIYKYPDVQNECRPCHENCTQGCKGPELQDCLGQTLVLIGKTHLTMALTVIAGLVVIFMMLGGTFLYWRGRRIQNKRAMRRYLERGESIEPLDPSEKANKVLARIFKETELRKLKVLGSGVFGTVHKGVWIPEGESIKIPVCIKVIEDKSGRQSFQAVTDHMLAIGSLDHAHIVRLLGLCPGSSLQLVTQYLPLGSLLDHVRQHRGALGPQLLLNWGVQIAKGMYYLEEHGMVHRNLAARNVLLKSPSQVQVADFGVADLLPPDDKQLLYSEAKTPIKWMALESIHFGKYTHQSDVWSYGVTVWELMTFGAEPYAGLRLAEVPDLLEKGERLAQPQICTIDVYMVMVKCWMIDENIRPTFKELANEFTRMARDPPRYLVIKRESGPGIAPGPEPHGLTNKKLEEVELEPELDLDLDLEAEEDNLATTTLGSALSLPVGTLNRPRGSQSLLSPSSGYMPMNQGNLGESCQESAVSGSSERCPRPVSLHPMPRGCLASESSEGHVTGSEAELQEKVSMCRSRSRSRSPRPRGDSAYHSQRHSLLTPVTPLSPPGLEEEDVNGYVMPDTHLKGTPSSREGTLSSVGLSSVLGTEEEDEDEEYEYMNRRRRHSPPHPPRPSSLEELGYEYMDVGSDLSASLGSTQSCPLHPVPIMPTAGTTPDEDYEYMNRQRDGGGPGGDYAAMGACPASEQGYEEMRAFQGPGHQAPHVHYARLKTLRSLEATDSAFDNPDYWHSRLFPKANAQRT
UniProt P03165: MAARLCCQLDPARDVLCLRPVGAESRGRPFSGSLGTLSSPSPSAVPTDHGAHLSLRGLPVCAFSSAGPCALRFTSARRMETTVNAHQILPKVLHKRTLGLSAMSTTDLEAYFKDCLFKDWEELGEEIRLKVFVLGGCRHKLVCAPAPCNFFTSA

Key:
[1] = molecular target: ErbB2, transfected into HEK293T cells (UniProt P04626); test: co-IP; HEK293T cells co-transfected with HBx and ErbB2 or ErbB3; total lysates, IP with anti-ErbB2 or anti-ErbB3, Western blot for HBx (Figure 5I, 5J)
[2] = molecular target: ErbB3, transfected into HEK293T cells (UniProt P21860); test: as above

Substance: HBV X protein (HBx) (from UniProt P03165 1-154)
- binding [1]: binds
- binding [2]: binds
